The target in test [1] is human MYH9 (hMYH9), endogenous in HEK293T (human) (UniProt P35579). Put plainly: co-IP; lysates of HEK293T cells stably expressing CD163, SRCR1-4 or SRCR5-CT; IP with anti-myc or anti-MYH9 antibody, blot with Mab2-5G2 and anti-myc.
The target in test [2] is porcine full-length CD163, stably expressed in HEK293T (HEK293T^CD163) (porcine) (UniProt Q2VL90). The description is as above.

Chains of the proteins cited; added tags and fusions are not shown. Residues count along the entry.
UniProt P35579: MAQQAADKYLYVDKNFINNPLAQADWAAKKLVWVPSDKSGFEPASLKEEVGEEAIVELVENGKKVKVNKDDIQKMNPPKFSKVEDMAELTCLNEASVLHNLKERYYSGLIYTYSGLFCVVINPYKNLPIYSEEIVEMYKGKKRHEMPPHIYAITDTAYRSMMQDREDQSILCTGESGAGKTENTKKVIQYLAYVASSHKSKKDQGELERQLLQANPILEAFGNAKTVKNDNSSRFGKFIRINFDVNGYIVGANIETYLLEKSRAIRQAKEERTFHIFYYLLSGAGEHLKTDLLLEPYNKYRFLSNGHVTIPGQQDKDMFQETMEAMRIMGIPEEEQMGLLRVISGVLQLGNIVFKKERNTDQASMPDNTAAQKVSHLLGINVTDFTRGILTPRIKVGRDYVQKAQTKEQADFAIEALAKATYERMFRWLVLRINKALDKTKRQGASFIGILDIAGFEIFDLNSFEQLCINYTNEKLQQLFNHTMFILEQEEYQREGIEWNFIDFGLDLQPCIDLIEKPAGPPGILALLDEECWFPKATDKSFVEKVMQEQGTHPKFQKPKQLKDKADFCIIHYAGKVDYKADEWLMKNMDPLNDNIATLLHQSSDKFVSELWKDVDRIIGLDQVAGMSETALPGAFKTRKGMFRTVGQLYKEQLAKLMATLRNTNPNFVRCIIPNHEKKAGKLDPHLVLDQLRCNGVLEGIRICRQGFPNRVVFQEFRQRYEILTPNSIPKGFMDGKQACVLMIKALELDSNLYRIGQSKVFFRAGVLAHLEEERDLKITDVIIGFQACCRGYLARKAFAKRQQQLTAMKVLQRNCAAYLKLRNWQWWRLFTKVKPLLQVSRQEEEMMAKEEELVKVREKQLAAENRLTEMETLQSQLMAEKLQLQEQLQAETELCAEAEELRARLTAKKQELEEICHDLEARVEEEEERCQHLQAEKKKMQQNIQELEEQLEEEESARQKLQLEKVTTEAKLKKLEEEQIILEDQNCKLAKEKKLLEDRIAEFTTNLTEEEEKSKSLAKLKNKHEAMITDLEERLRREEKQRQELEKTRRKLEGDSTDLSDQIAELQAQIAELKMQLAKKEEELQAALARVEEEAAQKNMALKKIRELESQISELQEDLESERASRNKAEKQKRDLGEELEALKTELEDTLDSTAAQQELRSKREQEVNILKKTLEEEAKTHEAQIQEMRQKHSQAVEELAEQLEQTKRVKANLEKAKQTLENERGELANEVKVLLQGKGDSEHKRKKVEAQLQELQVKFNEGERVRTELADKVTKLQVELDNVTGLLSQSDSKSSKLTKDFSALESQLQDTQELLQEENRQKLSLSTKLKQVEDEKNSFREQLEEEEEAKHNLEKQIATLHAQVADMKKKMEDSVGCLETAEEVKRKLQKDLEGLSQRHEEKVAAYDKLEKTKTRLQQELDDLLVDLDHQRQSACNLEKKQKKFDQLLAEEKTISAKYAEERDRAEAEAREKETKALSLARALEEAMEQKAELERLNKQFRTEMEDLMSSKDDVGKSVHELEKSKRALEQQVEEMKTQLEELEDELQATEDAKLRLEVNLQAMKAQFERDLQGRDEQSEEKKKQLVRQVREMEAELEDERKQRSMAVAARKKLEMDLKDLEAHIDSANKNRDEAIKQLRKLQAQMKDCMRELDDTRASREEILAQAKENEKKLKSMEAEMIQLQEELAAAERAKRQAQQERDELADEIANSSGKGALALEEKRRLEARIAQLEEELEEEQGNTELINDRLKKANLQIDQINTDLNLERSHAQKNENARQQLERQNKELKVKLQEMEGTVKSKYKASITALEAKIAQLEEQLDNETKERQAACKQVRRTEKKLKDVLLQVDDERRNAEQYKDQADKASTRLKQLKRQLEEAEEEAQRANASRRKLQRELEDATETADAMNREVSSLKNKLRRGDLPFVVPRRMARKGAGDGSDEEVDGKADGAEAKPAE
UniProt Q2VL90, residues 47-1115: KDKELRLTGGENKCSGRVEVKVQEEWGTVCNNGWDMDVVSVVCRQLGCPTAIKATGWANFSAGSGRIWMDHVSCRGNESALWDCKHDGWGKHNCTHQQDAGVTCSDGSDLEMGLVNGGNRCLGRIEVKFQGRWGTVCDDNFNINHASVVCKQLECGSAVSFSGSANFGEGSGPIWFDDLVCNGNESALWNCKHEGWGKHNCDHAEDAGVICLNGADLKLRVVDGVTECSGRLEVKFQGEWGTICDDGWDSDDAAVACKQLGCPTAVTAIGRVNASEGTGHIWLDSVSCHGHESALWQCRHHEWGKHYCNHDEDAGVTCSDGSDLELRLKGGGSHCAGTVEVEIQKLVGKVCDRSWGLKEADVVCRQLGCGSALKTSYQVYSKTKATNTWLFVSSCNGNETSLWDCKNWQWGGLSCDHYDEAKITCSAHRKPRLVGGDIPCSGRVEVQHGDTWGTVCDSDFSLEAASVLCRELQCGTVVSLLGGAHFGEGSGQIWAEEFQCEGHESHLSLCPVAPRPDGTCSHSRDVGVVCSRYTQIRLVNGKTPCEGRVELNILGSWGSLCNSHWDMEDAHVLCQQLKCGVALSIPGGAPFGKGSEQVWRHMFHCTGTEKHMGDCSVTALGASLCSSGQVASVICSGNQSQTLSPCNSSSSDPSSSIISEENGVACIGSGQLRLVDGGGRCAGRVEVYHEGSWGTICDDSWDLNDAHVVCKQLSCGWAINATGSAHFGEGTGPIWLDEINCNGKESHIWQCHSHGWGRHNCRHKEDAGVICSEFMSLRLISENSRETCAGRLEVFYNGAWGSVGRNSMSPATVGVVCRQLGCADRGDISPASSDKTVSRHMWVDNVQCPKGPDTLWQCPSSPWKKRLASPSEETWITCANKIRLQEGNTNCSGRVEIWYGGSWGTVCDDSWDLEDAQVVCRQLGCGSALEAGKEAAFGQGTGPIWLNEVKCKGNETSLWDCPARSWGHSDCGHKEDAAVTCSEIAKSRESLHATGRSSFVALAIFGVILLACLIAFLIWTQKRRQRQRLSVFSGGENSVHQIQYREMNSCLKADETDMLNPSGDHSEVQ

These are yes or no findings as the source states them, for the method shown. In cells and extracts the contact can be indirect. Some results given as binding are weak or reduced against the parent protein; the word gives no strength.

As for “porcine full-length CD163, stably expressed in HEK293T (HEK293T^CD163) (from UniProt Q2VL90 47-1115) (receptor)”, the binding entry in test [1] is recorded as “binds”.

On to “human MYH9 (hMYH9), endogenous in HEK293T (from UniProt P35579 1-1960)”, for which the binding result in test [2] was “binds”.

The values are drawn from article PMC6691103.
